Experimental data reported in US20180326005A1 (HEAT BIOLOGICS, published 2018).
No constants are given. Whether binding was seen depends on the method and setting. Some entries that bind do so weakly or less than the wild type. For some assays here: Where a sequence is shown, tags or fusion partners need not be part of it.

Protein sequences, listed by entry. Tags and fused reporters are not part of them. Lines headed by an entry give the natural chain unless they say otherwise; changes in a name come on top.
UniProt Q02242: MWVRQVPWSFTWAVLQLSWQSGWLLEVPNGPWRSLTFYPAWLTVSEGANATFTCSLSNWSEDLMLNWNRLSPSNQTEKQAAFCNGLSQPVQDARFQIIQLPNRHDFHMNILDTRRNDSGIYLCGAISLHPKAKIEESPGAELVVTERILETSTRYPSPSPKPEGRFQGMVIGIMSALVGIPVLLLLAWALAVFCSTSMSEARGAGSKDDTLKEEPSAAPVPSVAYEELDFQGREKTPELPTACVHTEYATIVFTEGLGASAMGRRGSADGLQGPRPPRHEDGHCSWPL

Tests used:
[1] = target: T1, mouse OX40 on cells (activated CD4+ splenocytes) (mouse) (UniProt P47741); assay: flow cytometry (Fc-PE), activated splenocytes, 500 ng/mL
T1 sequence (looked up): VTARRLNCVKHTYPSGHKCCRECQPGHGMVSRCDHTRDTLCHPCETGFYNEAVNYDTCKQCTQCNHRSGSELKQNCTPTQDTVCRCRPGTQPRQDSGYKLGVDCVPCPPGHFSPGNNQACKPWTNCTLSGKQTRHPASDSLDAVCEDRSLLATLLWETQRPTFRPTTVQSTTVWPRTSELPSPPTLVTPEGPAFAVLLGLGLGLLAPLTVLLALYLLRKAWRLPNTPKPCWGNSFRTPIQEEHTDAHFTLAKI

[2] = target: T2, recombinant mOX40 fused to human Fc (mouse) (UniProt P47741); assay: ELISA, capture on plate-bound mOX40-hFc, anti-mPD-1 detection
T2 sequence (looked up): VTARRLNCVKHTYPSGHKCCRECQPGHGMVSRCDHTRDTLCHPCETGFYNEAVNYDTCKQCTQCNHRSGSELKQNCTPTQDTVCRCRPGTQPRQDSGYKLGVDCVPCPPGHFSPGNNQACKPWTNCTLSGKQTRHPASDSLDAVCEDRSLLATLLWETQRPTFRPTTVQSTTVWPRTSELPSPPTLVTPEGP

[3] = target: T1, mouse OX40 on cells (activated CD4+ splenocytes) (mouse); assay: flow cytometry on activated mouse splenocytes
[4] = target: T3, mOX40-His (mouse) (UniProt P47741); assay: sandwich ELISA, capture mPD-L1-Fc, detection mOX40-His and His-HRP
T3 sequence (looked up): T2 sequence (looked up)

[5] = target: T2, recombinant mOX40 fused to human Fc (mouse); assay: ELISA: plate-bound mOX40-hFc, two-fold dilutions of CHO-K1 culture medium, detection with rabbit anti-mPD-1 and anti-rabbit IgG-HRP
[6] = target: T1, mouse OX40 on cells (activated CD4+ splenocytes) (mouse); assay: flow cytometry, activated primary mouse splenocytes, Fc-PE detection; 500 ng/mL according to paragraph 210
[7] = target: T3, mOX40-His (mouse); assay: functional ELISA, serial dilution of purified protein
[8] = target: T3, mOX40-His (mouse); assay: sandwich ELISA: plate-bound mPD-L1, mPD1-Fc-OX40L at 2000 to 0 ng/mL, detection with mOX40-His and rabbit anti-His-HRP

binding [1]: binds | binding [2]: binds | binding [3]: binds | binding [4]: binds | binding [5]: binds | binding [6]: binds | binding [7]: binds | binding [8]: binds
Substance: mouse PD-1-Fc-OX40L (from UniProt Q02242 25-169; P01868 98-324; P43488 51-198) (Fc fusion)
